Experimental data: PubChem BioAssay AID743454 (Peter MacCallum Cancer Centre, 2014)
Shown is an unselected part of about 18,000 reagents tested. 450 of all reagents (2.5%) were called active. 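Single biological run; no consistent viability z cut-off exists, so the class columns, not z-scores, define the calls.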 Unmarked entries are inactive. Reagent sequences are not shown.

- Assay: 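Knock-downs lowering viability or raising caspase 3/7 activity in vorinostat-treated resistant cells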 (primary screen)
- Cells: human HCT116-VR colon cancer cells, selected for vorinostat resistance
- Reagents: siRNA pool against human genes, 40 nM siRNA pool
- Duration: vorinostat for 24 h, read-out about 72 h after transfection
- Challenge: vorinostat at 2.5 µM final
- Read-out: 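Two measures, CellTiter-Fluor viability and luminescent caspase 3/7 activity, each as fold change against same-plate mock wells, mean of duplicates, then screen-wide robust z-score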
- Scale: viability robust z-score: higher = more viable cells than screen typical; caspase robust z-score: higher = more caspase 3/7 activity than screen typical
- Hit rule: 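Hits are knock-downs in viability class RV1/RV2 or caspase class CA1/CA2, excluding ones that killed cells in the no-drug cell-count arm; hits then retested with single siRNAs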

| gene symbol | viability hit class | caspase hit class | viability robust z-score | caspase robust z-score |
| --- | --- | --- | --- | --- |
| APOBEC3D (apolipoprotein B mRNA editing enzyme catalytic subunit 3D) | no change | no change | -1.2 | 0.98 |
| TNRC6C (trinucleotide repeat containing adaptor 6C) | no change | no change | -0.92 | 1.6 |
| SNX14 (sorting nexin 14) | no change | no change | 1.39 | -0.56 |
| TRIM43 (tripartite motif containing 43) | no change | no change | 0.82 | -0.14 |
| BRCA1 (BRCA1 DNA repair associated) | no change | no change | 0 | -0.24 |
| MTF2 (metal response element binding transcription factor 2) | no change (active) | CA2 (caspase activation) | -4.11 | 8.29 |
| OR52E2 (olfactory receptor family 52 subfamily E member 2) | no change | no change | 0.06 | 0.23 |
| ATP8B4 (ATPase phospholipid transporting 8B4 (putative)) | no change | no change | -1.05 | -0.26 |
| DLX2 (distal-less homeobox 2) | no change | no change | -1.77 | -0.33 |
| HERC3 (HECT and RLD domain containing E3 ubiquitin protein ligase 3) | no change | no change | -0.83 | 0.9 |
| SLC30A2 | no change | no change | -0.2 | 0.68 |
| RCAN3 (regulator of calcineurin 3) | no change | no change | 0.08 | 0.2 |
| CUL4A (cullin 4A) | no change | no change | 0.06 | -0.02 |

Active calls, among the entries above:
| gene symbol | viability hit class | caspase hit class | viability robust z-score | caspase robust z-score |
| --- | --- | --- | --- | --- |
| MTF2 (metal response element binding transcription factor 2) | no change (active) | CA2 (caspase activation) | -4.11 | 8.29 |

The listing continues.
| gene symbol | viability hit class | caspase hit class | viability robust z-score | caspase robust z-score |
| --- | --- | --- | --- | --- |
| FMR1NB (FMR1 neighbor) | no change | no change | -1.5 | -1.04 |
| SLC5A11 | no change | no change | -0.28 | 0.78 |
| BTF3L4 (basic transcription factor 3 like 4) | no change | no change | -0.64 | 3.12 |
| IL18RAP (interleukin 18 receptor accessory protein) | no change | no change | 0.36 | -0.26 |
| NDUFV1 (NADH:ubiquinone oxidoreductase core subunit V1) | no change | no change | -0.36 | -0.78 |
| GMFG (glia maturation factor gamma) | no change | no change | -0.82 | 2.02 |
| ADAM33 (ADAM metallopeptidase domain 33) | no change | no change | -1.75 | 0.16 |
| PSMA7 (proteasome 20S subunit alpha 7) | no change (active) | CA2 (caspase activation) | -4.21 | 7.52 |
| ATP5PD (ATP synthase peripheral stalk subunit d) | no change | no change | -0.06 | -0.9 |
| MAGEE2 (MAGE family member E2) | no change | no change | 1.12 | 0.14 |
| ZNF621 (zinc finger protein 621) | no change | no change | 0.44 | -0.3 |
| HMGB1 (high mobility group box 1) | no change | no change | -0.84 | 0.67 |
| EPHB2 (EPH receptor B2) | no change | no change | 1.01 | 3.24 |
| ICE2 (interactor of little elongation complex ELL subunit 2) | no change | no change | 1.88 | -0.09 |
| PTTG2 (pituitary tumor-transforming 2) | no change | no change | 0.72 | -0.34 |
| NCOA6 (nuclear receptor coactivator 6) | no change | no change | -1.66 | 3.86 |
| CHAF1B (chromatin assembly factor 1 subunit B) | no change | no change | -1.77 | -0.69 |
| FN1 (fibronectin 1) | no change | no change | 0.54 | -0.34 |
| CPNE7 (copine 7) | no change | no change | -0.45 | 0.5 |
| PCMT1 (protein-L-isoaspartate (D-aspartate) O-methyltransferase) | no change | no change | 0.66 | 0.15 |
| RTF2 (replication termination factor 2) | no change | no change | 1.17 | 0.07 |
| PRCP (prolylcarboxypeptidase) | no change | no change | 0.07 | -0.4 |
| ZYX (zyxin) | no change | no change | 0.65 | -0.34 |
| SEL1L (SEL1L adaptor subunit of SYVN1 ubiquitin ligase) | no change | no change | -0.23 | 3.58 |
| SCO1 (synthesis of cytochrome C oxidase 1) | no change | no change | 1.17 | 0.73 |
| KCNN2 (potassium calcium-activated channel subfamily N member 2) | no change | no change | -0.02 | -0.34 |
